In the supplement of paper PMC12819154, “High-throughput peptide-centric local stability assay extends protein–ligand identification to membrane proteins, tissues and bacteria” (Nature Structural & Molecular Biology, 2025) one finds log2 fold change data, which are given here for 28 targets.

By UniProt entry, the sequences of proteins in these tests, tags left out. Where a name states a change or a piece, a line headed by the entry shows the natural chain unless it says otherwise.
UniProt Q86YM7: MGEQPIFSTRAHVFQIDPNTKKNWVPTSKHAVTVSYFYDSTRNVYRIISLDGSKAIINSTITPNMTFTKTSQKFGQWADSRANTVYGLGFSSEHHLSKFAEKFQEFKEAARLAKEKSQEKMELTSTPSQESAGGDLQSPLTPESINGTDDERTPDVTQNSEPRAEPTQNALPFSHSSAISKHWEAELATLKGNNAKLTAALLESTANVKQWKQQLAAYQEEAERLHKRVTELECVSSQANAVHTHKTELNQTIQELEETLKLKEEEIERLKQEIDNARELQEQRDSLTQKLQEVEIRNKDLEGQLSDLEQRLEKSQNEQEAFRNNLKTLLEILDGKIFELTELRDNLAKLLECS
UniProt Q8IWE2: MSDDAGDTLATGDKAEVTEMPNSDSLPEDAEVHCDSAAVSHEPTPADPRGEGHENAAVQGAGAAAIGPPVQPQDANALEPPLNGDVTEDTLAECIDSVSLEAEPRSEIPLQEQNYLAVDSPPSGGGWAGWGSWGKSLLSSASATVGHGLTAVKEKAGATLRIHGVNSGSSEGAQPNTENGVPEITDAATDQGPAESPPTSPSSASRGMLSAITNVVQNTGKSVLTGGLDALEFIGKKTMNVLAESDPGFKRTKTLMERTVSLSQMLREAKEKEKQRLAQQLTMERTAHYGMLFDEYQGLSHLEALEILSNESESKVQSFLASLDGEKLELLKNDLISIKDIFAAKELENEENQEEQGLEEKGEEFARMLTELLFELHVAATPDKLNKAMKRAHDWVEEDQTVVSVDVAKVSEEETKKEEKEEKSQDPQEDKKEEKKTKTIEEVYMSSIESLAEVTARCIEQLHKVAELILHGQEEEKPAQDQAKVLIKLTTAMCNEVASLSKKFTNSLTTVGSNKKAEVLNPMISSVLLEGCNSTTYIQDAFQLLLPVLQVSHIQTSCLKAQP
UniProt Q8N1G2: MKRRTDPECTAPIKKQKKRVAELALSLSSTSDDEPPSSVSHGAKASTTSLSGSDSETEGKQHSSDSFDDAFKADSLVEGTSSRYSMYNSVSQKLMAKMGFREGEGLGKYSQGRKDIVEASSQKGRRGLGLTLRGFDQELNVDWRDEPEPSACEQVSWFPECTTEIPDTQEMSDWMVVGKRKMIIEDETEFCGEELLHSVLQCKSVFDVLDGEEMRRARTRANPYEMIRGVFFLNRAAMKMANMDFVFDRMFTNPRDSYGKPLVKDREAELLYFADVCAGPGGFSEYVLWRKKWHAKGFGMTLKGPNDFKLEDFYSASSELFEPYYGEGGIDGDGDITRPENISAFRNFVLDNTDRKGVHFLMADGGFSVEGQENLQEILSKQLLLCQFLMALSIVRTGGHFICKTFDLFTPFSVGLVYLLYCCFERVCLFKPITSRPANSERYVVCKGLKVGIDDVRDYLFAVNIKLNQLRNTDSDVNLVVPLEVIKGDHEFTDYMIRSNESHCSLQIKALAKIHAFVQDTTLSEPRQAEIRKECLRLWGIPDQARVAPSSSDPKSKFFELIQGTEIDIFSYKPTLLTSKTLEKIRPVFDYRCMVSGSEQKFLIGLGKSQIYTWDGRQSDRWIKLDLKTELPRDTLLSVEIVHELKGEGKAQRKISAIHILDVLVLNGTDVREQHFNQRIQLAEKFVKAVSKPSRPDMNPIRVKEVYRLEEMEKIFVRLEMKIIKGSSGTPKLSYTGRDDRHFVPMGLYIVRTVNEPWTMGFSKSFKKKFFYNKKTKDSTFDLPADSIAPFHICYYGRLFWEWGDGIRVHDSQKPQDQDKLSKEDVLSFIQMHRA
UniProt Q8IZ13: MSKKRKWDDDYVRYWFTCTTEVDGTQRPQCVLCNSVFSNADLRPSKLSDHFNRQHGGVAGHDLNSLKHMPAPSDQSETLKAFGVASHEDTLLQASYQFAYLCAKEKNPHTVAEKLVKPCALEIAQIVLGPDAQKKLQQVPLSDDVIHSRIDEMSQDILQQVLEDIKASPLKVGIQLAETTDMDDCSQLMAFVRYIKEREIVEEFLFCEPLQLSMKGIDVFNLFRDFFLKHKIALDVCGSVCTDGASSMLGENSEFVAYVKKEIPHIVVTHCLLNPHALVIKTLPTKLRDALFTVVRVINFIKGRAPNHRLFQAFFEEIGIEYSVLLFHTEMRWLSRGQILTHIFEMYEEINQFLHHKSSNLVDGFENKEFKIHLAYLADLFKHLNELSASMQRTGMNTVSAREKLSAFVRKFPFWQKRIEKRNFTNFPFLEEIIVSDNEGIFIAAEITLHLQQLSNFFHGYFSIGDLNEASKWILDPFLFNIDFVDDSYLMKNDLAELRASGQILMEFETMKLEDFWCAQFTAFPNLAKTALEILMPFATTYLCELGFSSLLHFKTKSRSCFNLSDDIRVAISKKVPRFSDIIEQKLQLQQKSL
UniProt Q8IWR0: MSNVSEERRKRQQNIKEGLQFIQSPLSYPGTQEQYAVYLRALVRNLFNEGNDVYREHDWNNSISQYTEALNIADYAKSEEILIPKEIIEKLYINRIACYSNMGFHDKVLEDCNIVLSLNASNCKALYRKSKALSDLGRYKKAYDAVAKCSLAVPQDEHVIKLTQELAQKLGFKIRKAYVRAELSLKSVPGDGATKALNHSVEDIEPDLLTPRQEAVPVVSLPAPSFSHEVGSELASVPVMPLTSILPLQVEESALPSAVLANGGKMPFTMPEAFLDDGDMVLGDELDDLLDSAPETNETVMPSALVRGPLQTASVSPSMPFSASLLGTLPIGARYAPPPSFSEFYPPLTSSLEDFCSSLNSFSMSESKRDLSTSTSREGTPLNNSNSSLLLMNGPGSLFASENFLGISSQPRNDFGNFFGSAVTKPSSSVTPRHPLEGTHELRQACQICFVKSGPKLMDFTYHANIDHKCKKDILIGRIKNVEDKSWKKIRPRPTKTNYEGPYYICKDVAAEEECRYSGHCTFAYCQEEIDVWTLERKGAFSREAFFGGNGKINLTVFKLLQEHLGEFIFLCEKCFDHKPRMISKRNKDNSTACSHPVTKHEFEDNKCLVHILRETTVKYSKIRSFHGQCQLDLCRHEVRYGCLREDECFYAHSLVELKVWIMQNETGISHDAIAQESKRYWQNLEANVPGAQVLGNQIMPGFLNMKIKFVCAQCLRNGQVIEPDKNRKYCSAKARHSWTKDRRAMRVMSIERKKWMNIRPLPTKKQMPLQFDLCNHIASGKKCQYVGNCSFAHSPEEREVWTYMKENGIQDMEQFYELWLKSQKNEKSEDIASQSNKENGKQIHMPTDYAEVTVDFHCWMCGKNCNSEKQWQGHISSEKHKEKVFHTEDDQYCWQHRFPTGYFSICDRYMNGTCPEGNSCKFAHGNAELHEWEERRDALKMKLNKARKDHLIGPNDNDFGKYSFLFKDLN
UniProt Q8IW35: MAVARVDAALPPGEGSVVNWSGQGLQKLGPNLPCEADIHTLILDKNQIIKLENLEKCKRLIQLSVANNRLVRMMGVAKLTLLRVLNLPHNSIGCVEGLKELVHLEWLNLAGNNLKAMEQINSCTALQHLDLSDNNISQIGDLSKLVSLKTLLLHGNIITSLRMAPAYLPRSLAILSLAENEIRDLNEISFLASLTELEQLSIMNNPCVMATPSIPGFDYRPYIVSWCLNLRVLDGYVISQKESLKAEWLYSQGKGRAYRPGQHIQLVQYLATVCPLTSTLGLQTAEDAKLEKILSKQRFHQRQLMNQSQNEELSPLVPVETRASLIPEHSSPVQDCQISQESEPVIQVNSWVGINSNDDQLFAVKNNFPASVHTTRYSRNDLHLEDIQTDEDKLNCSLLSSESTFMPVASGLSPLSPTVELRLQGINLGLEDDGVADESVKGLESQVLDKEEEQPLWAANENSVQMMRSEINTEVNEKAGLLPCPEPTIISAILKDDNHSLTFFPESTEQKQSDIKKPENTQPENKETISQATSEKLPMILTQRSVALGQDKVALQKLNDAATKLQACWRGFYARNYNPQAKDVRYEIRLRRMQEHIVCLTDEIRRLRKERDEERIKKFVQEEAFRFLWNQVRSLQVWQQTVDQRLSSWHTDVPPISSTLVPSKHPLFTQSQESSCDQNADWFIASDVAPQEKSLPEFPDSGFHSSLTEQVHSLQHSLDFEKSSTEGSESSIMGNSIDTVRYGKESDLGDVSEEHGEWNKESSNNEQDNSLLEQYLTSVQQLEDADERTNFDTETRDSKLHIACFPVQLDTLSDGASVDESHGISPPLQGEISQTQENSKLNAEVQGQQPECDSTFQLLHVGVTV
UniProt Q8N1G0: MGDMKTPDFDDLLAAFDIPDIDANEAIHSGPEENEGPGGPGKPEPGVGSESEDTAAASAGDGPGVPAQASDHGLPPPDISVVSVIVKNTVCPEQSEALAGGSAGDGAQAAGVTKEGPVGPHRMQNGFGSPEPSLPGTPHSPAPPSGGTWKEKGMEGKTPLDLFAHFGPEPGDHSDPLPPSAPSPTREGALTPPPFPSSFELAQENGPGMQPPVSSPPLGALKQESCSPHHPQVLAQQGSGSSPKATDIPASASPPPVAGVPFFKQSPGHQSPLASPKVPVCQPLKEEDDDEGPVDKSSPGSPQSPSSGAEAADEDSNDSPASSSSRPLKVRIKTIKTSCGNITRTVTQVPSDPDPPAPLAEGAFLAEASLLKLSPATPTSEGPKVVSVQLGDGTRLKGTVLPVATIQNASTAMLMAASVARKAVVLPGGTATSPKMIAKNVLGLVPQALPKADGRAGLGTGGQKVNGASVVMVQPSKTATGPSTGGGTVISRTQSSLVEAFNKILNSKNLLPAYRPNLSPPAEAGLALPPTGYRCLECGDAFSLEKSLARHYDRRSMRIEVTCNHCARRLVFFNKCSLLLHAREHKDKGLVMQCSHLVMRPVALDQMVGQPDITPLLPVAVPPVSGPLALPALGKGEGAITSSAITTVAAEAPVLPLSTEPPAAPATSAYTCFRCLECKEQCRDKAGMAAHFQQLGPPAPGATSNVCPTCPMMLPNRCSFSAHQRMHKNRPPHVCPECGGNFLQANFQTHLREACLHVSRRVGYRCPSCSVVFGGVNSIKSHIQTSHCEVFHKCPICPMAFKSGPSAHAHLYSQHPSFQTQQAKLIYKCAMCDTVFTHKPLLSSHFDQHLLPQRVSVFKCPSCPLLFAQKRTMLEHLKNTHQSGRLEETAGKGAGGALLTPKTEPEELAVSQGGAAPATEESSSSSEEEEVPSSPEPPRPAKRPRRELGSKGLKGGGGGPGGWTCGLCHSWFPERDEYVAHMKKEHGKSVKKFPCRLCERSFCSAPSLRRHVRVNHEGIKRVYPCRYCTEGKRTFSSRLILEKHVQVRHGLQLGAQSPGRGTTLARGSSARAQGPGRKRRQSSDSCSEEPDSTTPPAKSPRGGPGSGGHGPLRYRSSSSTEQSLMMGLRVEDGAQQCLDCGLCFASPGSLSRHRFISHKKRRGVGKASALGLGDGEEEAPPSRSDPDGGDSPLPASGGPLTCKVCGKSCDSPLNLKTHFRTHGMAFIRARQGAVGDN
UniProt Q8IZQ5, whole entry: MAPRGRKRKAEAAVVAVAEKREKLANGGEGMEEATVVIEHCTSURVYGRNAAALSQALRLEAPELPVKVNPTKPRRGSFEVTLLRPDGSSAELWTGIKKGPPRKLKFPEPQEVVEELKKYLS
UniProt Q86X95: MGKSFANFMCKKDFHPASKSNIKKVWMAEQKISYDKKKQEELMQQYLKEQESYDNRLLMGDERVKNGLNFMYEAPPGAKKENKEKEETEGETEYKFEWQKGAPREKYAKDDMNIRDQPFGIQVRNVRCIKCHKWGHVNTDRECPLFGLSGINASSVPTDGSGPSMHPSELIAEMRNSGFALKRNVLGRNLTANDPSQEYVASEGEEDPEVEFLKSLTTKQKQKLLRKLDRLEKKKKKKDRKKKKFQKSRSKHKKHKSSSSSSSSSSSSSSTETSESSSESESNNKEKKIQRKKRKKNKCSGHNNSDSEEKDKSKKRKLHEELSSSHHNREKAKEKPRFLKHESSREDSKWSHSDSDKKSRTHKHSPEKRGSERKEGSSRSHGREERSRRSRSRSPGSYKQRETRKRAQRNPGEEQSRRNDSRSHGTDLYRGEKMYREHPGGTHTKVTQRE
UniProt Q8N2G8: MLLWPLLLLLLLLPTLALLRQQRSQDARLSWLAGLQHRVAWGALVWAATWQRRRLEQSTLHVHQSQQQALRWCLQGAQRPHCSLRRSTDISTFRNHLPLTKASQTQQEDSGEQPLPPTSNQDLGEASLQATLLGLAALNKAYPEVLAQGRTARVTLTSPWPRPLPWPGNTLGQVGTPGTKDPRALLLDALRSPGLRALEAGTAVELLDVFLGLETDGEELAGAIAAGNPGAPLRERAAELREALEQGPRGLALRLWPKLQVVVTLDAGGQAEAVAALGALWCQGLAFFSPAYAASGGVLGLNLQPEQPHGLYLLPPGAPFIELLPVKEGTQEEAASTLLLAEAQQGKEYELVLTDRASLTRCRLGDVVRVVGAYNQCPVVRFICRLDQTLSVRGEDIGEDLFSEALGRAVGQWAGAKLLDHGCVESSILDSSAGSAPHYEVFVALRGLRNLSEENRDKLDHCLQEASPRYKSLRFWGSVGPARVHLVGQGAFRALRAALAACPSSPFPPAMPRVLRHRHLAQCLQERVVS

Some of the results follow. Most entries show no effect beyond the scatter of the controls.

Compound in the assay: CN[C@@H]1C[C@H]2O[C@@](C)([C@@H]1OC)n1c3ccccc3c3c4c(c5c6ccccc6n2c5c31)C(=O)NC4 [staurosporine]
Description: log2 fold change of tryptic peptide abundance, ligand vs vehicle (limited proteolysis) (log2 ratio); higher = more trypsin-susceptible (destabilized). The settings on record: ligand concentration: 20 uM; sample: K562 cleared lysate; digestion: 4 min, 22 C (HT-PELSA RT4min, Orbitrap Astral).
On to “HOMER1 (peptide sequence: NKDLEGQLSDLEQR, peptide start residue: 298) (UniProt Q86YM7)”, for which the log2 fold change was 0.42.

As to “UniProt Q8N2Z9 (peptide sequence: SEEIAQINLER, peptide start residue: 100)”, the log2 fold change is -0.352.

Turning to “FAM114A1 (peptide sequence: SVLTGGLDALEFIGKK, peptide start residue: 222) (UniProt Q8IWE2)”, the log2 fold change worked out at 0.368.

Regarding “PHF13 (peptide sequence: DSDAPGKEGYR, peptide start residue: 126) (UniProt Q86YI8)”, the log2 fold change stood at 0.394.

Take “UniProt Q8N1G2 (peptide sequence: DIVEASSQK, peptide start residue: 115)”: the log2 fold change was -0.181.

Consider “STAG2 (peptide sequence: YVGWTMHDK, peptide start residue: 331) (UniProt Q8N3U4)”, for which the log2 fold change is 0.631.

As to “ZBED8 (peptide sequence: HMPAPSDQSETLK, peptide start residue: 68) (UniProt Q8IZ13)”, the log2 fold change is -0.358.

As for “FBXO11 (peptide sequence: NSMEGASTSTTENFGHR, peptide start residue: 117) (UniProt Q86XK2)”, the log2 fold change was -0.226.

Consider “ZC3H7A (peptide sequence: FAHGNAELHEWEERR, peptide start residue: 923) (UniProt Q8IWR0)”, for which the log2 fold change is -0.813.

“ZGRF1 (peptide sequence: WTDAVYGDNKEDANKPIQEVR, peptide start residue: 650) (UniProt Q86YA3)”: the log2 fold change was -0.865.

As for “GTPBP8 (peptide sequence: IFDPSPEDIAR, peptide start residue: 70) (UniProt Q8N3Z3)”, the log2 fold change is -0.131.

For “UEVLD (peptide sequence: QVDLLAYIAK, peptide start residue: 152) (UniProt Q8IX04)”, the log2 fold change was -0.13.

For “UniProt Q8N357 (peptide sequence: GRPLAEESEQER, peptide start residue: 347)”, the log2 fold change was -0.187.

Turning to “UniProt Q8IYD8 (peptide sequence: YQIILAR, peptide start residue: 332)”, the log2 fold change was -0.282.

For the target “CEP97 (peptide sequence: MQEHIVCLTDEIRR, peptide start residue: 593) (UniProt Q8IW35)”, the log2 fold change is -0.439.

For the target “UniProt Q8IYS0 (peptide sequence: SLLPTLEK, peptide start residue: 279)”, the log2 fold change came to 0.131.

With “RAVER1 (peptide sequence: AADVSVTHRPPLSPK, peptide start residue: 2) (UniProt Q8IY67)”, the log2 fold change was found to be 0.373.

Regarding “ZNF687 (peptide sequence: SSSSTEQSLMMGLR, peptide start residue: 1116) (UniProt Q8N1G0)”, the log2 fold change is -0.369.

Consider “UniProt Q8IZQ5 (peptide sequence: KAEAAVVAVAEK, peptide start residue: 9)”, for which the log2 fold change is -0.385.

Consider “MEX3D (peptide sequence: DKEPVFAVTGMPENVDR, peptide start residue: 313) (UniProt Q86XN8)”, for which the log2 fold change is -0.383.

As for “UniProt Q86X95 (peptide sequence: SFANFMCK, peptide start residue: 4)”, the log2 fold change is -0.242.

Take “UniProt Q86WG3 (peptide sequence: SLIIVHPSWFIR, peptide start residue: 243)”: the log2 fold change is 0.0228.

As to “UniProt Q86YW9 (peptide sequence: KKPQVNAK, peptide start residue: 92)”, the log2 fold change was found to be 0.112.

For the target “GHDC (peptide sequence: STDISTFR, peptide start residue: 87) (UniProt Q8N2G8)”, the log2 fold change is 0.135.

Turning to “CCDC50 (peptide sequence: AAQVAQDEEIAR, peptide start residue: 196) (UniProt Q8IVM0)”, the log2 fold change was -0.116.

As for “UniProt Q86YR6 (peptide sequence: QKQIEVAEQK, peptide start residue: 498)”, the log2 fold change was 0.0928.

As for “RUSC2 (peptide sequence: WGHLFGSR, peptide start residue: 1386) (UniProt Q8N2Y8)”, the log2 fold change worked out at 0.472.

For “UniProt Q8IXH7 (peptide sequence: ACQALGAMLSK, peptide start residue: 292)”, the log2 fold change was determined as 0.693.
